Test results: article PMC10163120

Molecular target: T1, P2X4 receptor (mouse (endogenous in BMDM)) (UniProt Q9JJX6)
T1 sequence: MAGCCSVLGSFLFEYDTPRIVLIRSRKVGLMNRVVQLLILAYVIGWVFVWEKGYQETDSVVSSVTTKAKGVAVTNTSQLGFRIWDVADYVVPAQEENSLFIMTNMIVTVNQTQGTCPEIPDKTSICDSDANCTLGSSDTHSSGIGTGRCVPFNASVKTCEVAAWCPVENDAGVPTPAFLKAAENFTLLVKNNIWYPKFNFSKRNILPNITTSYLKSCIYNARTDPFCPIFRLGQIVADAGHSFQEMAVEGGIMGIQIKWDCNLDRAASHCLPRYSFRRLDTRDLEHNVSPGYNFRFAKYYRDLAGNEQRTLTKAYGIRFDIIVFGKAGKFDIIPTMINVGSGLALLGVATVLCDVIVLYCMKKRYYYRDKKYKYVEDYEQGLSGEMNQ
Test: affinity purification with mass spectrometry; anti-P2X4 antibody (Alomone Labs) crosslinked to magnetic beads, incubated o/n at 4 °C with CL48-solubilised membrane-enriched fractions of BMDM from WT and P2X4 KO mice; eluates analysed by LC MS/MS; two independent experiments

B1: Apolipoprotein E (protein, UniProt P08226 19-311)
chain: EGEPEVTDQLEWQSNQPWEQALNRFWDYLRWVQTLSDQVQEELQSSQVTQELTALMEDTMTEVKAYKKELEEQLGPVAEETRARLGKEVQAAQARLGADMEDLRNRLGQYRNEVHTMLGQSTEEIRARLSTHLRKMRKRLMRDAEDLQKRLAVYKAGAREGAERGVSAIRERLGPLVEQGRQRTANLGAGAAQPLRDRAQAFGDRIRGRLEEVGNQARDRLEEVREHMEEVRSKMEEQTQQIRLQAEIFQARLKGWFEPIVEDMHRQWANLMEKIQASVATNPIITPVAQENQ
Question: How did the binding turn out when B1 was run?
Answer: binds

No constants are given. Whether binding was seen depends on the method and setting. In cells and extracts the contact can be indirect. Here binding means that the protein was enriched with, or labelled near, the bait; the list need not be complete.
